The other results are listed elsewhere or left out.
Compound: CC1Cc2ccccc2N1C(=O)C1CCCN(C1)C(=O)CCl (mixture of isomers) [TRIM25 ligand 11 (diastereomer mixture)]
Assay: probe-labelled cysteine peptide fold change vs DMSO (competition) (log2 fold change); higher = less target engagement (more negative = stronger competition)
Conditions: THP-1, incubation time: 4 h
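Also: competitive chemoproteomic profiling in live THP-1 cells with an iodoacetamide desthiobiotin (IA-DTB) probe, comparing probe-labelled peptide intensities in compound-treated cells against DMSO-treated controls.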

Chains of the proteins cited; added tags and fusions are not shown. Lines headed by an entry give the natural chain unless they say otherwise; changes in a name come on top.
UniProt O43175: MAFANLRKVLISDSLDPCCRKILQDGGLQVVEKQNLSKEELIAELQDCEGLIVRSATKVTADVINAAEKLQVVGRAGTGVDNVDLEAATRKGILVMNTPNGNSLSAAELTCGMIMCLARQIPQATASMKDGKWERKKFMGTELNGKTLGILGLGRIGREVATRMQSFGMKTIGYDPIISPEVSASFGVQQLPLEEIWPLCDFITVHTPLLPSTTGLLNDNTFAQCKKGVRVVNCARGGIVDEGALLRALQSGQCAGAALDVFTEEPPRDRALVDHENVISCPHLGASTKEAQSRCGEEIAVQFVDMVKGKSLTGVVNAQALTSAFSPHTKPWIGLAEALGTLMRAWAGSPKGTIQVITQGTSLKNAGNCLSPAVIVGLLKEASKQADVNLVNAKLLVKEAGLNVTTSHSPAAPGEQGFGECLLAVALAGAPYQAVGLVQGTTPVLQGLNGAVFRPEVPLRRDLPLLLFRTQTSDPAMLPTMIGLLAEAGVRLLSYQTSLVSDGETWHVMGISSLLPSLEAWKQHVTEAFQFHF
UniProt P52209: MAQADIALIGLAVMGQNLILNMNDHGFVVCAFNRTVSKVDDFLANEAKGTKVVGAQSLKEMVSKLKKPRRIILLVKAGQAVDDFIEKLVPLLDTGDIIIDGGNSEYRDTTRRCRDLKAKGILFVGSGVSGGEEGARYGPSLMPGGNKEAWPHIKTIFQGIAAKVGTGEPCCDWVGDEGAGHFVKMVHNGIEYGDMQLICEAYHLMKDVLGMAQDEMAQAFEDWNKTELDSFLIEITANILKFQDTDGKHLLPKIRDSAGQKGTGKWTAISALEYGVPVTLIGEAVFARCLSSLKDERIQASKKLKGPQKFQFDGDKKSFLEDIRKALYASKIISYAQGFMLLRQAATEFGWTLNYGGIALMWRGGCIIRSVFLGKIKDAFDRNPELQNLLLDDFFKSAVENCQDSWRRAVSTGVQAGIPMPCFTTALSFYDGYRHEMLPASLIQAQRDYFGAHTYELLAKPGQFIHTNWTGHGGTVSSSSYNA
UniProt P36871: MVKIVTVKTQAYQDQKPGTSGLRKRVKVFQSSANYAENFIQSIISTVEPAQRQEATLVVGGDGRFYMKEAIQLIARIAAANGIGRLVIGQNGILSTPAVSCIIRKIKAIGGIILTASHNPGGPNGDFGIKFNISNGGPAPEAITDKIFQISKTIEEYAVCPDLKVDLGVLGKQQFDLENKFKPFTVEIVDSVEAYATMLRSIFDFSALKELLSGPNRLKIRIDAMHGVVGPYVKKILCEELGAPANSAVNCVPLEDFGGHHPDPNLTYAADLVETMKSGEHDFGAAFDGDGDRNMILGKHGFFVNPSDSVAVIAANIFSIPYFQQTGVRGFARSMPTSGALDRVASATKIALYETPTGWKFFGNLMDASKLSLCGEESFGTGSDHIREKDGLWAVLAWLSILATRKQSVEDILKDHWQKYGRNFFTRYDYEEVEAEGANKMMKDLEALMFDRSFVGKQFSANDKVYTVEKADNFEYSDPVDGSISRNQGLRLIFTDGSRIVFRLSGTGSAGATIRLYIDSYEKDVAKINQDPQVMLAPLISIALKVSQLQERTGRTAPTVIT
UniProt Q13608: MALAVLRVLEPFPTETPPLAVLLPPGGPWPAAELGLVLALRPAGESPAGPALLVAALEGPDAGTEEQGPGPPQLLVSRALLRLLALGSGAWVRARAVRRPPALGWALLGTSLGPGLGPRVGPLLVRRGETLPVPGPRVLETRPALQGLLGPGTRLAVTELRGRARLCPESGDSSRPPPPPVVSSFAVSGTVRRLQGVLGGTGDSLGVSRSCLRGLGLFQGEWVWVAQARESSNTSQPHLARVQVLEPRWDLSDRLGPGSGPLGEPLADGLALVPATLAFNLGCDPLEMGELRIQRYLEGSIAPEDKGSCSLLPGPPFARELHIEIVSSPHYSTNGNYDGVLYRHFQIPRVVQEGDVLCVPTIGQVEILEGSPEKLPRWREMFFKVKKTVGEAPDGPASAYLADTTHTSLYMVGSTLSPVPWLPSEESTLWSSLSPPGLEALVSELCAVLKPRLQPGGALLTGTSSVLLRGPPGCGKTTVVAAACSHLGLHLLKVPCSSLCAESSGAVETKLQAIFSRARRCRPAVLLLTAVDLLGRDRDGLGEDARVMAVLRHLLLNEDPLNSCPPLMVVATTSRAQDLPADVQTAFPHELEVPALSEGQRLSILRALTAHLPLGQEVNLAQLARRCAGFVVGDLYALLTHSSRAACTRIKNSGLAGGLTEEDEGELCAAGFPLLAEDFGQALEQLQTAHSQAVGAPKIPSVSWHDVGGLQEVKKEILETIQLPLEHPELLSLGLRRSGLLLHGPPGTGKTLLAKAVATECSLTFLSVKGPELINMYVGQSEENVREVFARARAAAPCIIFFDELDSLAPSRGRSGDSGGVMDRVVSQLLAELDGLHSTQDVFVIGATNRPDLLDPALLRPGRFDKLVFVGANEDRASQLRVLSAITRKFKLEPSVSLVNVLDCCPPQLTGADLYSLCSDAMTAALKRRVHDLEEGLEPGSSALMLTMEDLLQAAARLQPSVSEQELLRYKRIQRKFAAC
UniProt Q16875: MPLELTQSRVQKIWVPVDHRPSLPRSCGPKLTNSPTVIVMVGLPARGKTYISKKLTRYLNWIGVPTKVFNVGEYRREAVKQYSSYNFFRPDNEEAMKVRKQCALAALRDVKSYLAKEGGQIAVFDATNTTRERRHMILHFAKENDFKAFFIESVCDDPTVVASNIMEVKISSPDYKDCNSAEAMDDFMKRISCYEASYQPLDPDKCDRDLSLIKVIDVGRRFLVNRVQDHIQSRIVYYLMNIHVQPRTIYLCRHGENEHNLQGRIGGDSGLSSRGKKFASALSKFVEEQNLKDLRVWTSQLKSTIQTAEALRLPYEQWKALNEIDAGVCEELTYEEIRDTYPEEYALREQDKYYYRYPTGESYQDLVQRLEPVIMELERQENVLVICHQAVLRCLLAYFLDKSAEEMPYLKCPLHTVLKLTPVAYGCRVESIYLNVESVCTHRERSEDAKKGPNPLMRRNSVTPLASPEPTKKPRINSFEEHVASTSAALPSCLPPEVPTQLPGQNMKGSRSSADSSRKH
UniProt Q96HS1, whole entry, looked up: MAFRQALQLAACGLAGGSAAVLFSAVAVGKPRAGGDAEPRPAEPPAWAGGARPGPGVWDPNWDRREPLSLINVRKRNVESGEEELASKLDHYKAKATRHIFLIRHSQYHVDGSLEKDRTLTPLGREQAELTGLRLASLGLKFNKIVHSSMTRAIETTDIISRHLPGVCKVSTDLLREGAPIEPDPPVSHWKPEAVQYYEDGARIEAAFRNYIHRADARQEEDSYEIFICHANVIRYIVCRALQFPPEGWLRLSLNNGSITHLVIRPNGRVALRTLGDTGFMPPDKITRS
UniProt Q14442: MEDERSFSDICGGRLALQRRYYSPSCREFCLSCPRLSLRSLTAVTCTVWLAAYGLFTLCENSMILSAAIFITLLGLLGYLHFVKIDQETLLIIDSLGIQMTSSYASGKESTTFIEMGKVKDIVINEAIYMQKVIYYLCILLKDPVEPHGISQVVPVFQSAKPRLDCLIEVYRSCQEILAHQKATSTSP
UniProt Q01813: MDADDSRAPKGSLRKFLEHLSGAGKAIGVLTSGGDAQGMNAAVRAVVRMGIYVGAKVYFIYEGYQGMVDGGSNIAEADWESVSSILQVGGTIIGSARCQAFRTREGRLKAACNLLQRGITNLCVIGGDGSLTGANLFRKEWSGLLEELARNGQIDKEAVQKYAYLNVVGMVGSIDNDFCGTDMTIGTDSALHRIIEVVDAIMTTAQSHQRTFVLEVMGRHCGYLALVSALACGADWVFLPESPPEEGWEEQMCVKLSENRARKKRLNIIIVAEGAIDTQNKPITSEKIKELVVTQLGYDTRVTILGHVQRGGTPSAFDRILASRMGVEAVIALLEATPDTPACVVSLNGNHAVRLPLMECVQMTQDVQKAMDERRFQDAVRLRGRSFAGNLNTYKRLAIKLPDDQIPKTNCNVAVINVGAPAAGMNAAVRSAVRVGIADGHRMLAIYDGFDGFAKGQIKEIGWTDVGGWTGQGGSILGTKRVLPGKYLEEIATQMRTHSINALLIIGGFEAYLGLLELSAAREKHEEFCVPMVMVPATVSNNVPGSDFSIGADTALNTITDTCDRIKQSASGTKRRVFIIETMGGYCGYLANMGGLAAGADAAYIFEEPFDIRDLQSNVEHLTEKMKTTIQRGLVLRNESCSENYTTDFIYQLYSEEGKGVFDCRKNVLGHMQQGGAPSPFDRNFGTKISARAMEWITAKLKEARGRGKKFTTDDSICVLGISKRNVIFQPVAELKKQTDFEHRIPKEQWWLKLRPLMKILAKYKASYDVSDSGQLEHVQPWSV
UniProt P53609, whole entry, looked up: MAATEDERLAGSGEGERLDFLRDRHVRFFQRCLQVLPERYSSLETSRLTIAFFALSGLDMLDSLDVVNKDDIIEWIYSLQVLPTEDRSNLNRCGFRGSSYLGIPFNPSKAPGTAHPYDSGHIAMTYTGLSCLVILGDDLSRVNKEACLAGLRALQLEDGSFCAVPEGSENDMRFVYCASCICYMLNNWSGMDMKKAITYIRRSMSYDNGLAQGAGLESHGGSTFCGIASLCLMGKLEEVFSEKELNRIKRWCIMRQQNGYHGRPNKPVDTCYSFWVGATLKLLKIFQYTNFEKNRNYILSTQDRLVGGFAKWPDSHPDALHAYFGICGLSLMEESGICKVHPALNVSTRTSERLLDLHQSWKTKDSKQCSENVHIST
UniProt Q9NRX4: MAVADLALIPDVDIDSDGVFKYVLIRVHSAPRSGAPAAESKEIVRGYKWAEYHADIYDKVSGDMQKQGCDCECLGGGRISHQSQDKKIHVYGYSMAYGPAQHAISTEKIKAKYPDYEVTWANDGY
UniProt P00558: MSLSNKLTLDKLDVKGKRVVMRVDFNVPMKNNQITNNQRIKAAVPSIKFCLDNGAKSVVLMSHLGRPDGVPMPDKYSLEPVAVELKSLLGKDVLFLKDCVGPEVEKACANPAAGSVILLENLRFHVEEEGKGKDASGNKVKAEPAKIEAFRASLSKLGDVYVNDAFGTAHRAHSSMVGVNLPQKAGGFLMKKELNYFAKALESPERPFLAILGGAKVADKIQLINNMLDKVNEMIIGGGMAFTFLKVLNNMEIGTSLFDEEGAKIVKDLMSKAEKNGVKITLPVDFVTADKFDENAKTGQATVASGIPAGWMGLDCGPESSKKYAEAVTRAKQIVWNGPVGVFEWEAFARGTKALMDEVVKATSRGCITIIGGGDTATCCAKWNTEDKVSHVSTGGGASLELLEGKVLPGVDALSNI
UniProt Q7RTV0, whole entry, looked up: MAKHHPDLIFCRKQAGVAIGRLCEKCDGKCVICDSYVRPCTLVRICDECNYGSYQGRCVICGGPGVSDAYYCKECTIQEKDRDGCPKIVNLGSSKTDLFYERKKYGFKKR
UniProt P46020: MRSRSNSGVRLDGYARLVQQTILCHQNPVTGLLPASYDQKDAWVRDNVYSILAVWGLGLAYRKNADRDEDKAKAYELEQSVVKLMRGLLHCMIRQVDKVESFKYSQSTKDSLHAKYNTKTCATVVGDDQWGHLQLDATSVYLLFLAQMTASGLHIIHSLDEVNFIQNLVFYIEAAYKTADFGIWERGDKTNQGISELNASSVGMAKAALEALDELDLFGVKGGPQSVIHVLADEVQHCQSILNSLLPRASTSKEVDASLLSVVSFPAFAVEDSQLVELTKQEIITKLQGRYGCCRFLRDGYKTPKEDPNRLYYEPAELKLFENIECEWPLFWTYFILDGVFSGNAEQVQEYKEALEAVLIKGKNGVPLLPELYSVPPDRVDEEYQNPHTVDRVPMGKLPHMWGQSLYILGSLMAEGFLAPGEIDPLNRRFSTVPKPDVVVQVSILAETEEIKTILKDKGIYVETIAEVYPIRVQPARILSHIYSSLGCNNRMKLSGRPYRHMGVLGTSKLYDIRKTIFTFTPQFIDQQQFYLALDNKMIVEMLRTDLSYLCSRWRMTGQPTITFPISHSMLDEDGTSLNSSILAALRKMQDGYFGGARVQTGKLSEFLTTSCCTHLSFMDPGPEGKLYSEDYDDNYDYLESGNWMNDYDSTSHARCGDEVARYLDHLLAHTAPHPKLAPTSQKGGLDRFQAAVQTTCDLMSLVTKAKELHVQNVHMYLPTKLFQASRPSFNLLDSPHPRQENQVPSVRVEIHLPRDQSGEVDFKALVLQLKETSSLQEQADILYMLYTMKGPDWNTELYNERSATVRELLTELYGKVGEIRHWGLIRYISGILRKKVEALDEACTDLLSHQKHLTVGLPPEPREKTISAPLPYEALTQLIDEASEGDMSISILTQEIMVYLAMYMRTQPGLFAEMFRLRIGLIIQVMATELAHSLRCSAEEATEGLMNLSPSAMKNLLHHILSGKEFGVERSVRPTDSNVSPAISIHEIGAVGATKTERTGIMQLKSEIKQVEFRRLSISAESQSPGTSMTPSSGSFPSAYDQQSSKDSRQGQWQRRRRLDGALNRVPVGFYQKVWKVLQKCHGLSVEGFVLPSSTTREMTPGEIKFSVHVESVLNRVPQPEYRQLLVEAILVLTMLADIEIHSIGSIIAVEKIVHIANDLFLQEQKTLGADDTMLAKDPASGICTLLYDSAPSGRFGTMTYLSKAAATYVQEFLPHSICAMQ

Target	probe-labelled cysteine peptide fold change (10 µM)	probe-labelled cysteine peptide fold change (50 µM)
PES1_O00541_361_SLCIGATYDVTDSR (UniProt O00541)	-0.00464	0.0571
PHGDH_O43175_254_ALQSGQCAGAALDVFTEEPPRDR (UniProt O43175)	-0.162	0.033
PGD_P52209_422_AVSTGVQAGIPMPCFTTALSFYDGYR (UniProt P52209)	0.175	-0.348
PGM1_P36871_160_TIEEYAVCPDLK (UniProt P36871)	0.0318	-0.0781
PFKFB2_O60825_255_TIYLCR (UniProt O60825)	0.0693	0.0795
PDXK_O00764_112_LVYVCDPVLGDKWDGEGSMYVPEDLLPVYK (UniProt O00764)	-0.144	-0.239
PEX6_Q13608_761_AVATECSLTFLSVK (UniProt Q13608)	-0.0523	0.145
PFKFB3_Q16875_102_QCALAALR (UniProt Q16875)	-0.0705	-0.162
PGAM5_Q96HS1_229_QEEDSYEIFICHANVIR (UniProt Q96HS1)	0.145	0.356
PFKFB3_Q16875_155_AFFIESVCDDPTVVASNIMEVK (UniProt Q16875)	-0.0739	-0.0439
PIGK_Q92643_280_SLCVSTPGHR (UniProt Q92643)	-0.0253	-0.052
PEAK3_Q6ZS72_318_GCATTGPPR (UniProt Q6ZS72)	0.0965	0.108
PHF3_Q92576_186_EEVCMSLKPEYHK (UniProt Q92576)	-0.0972	-0.38
PECAM1_P16284_476_DNPTEDVEYQCVADNCHSHAK (UniProt P16284)	-0.0513	-0.167
PIGQ_Q9BRB3_247_LSTCEQLR (UniProt Q9BRB3)	0.07	-0.0172
PGAM5_Q96HS1_229_ADARQEEDSYEIFICHANVIR (UniProt Q96HS1)	-0.175	0.0271
PIGH_Q14442_166_LDCLIEVYR (UniProt Q14442)	0.0428	0.0167
PHF20L1_A8MW92_497_GSEVTAPVASDSSYRNECPR (UniProt A8MW92)	0.0513	-0.16
PHACTR3_Q96KR7_126_TCNPDGGPR (UniProt Q96KR7)	-0.113	-0.058
PEX7_O00628_207_IVIPAHQAEILSCDWCK (UniProt O00628)	0.0804	-0.183

Target	probe-labelled cysteine peptide fold change (10 µM)	probe-labelled cysteine peptide fold change (50 µM)
PFDN5_Q99471_49_DCLNVLNK (UniProt Q99471)	-0.223	-0.253
PGAM5_Q96HS1_168_HLPGVCK (UniProt Q96HS1)	-0.0611	-0.0945
PFKP_Q01813_360_LPLMECVQMTQDVQK (UniProt Q01813)	-0.0935	-0.109
PGGT1B_P53609_327+338_WPDSHPDALHAYFGICGLSLMEESGICK (UniProt P53609)	0.121	0.0766
PEX6_Q13608_358_VVQEGDVLCVPTIGQVEILEGSPEK (UniProt Q13608)	-0.357	-0.37
PDXK_O00764_112_LVYVCDPVLGDK (UniProt O00764)	0.194	0.079
PHPT1_Q9NRX4_69_QGCDCECLGGGR (UniProt Q9NRX4)	-0.148	-0.039
PHF6_Q8IWS0_128_EKPSQGIYMVYCR (UniProt Q8IWS0)	-0.0114	-0.0796
PGK1_P00558_316_TGQATVASGIPAGWMGLDCGPESSK (UniProt P00558)	-0.173	-0.2
PFKFB3_Q16875_440_VESIYLNVESVCTHR (UniProt Q16875)	0.295	0.354
PHRF1_Q9P1Y6_145_NANSCPVDR (UniProt Q9P1Y6)	-0.045	-0.0142
PGM1_P36871_374_LSLCGEESFGTGSDHIR (UniProt P36871)	-0.00372	0.0469
PFKP_Q01813_718_FTTDDSICVLGISK (UniProt Q01813)	0.00213	0.0649
PHF5A_Q7RTV0_11_HHPDLIFCR (UniProt Q7RTV0)	0.0557	-0.0135
PEX11B_O96011_25_AAQYACSLLGHALQR (UniProt O96011)	0.0645	0.12
PGK1_P00558_367_GCITIIGGGDTATCCAK (UniProt P00558)	0.103	0.0351
PFKL_P17858_170_TYSHLNIAGLVGSIDNDFCGTDMTIGTDSALHR (UniProt P17858)	0.137	-0.0944
PHKA1_P46020_91_GLLHCMIR (UniProt P46020)	0.166	0.0455
PI4KA_P42356_58_LLCMCPVDFHGIFQLDER (UniProt P42356)	-0.0539	-0.0902

Reference: the supplement of paper PMC12067093, “Discovery and optimisation of a covalent ligand for TRIM25 and its application to targeted protein ubiquitination” (Chemical Science, 2025)
